Laboratory results: the supplement of paper PMC4604168 (melanoma cell lines)
This is one part of the list. Repeats are few or missing, and single values can be far off.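 Imaging used 1,536-well plates; nuclei positive for cleaved PARP by antibody were divided by total DNA-stained nuclei to yield the apoptosis fraction. Doses for screening kept most cells viable, and cell lines differ markedly in resting and induced cleaved-PARP levels.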

Experiments:
Experiment in all cases: cleaved PARP positive nuclei fraction relative to DMSO control; melanoma cells; higher = more apoptosis
Conditions in all cases: library dose: low library concentration; 72 h
[1] = system: MZ2-MEL
[2] = system: MeWo
[3] = system: RPMI7951
[4] = system: RVH-421
[5] = system: SkMel28
[6] = system: SkMel2
[7] = system: SkMel30
[8] = system: SkMel5
[9] = system: UACC257
[10] = system: UACC62
[11] = system: WM115
[12] = system: WM1716
[13] = system: WM1745
[14] = system: WM3526
[15] = system: WM3619
[16] = system: WM451Lu

Compound | cleaved PARP positive nuclei fraction [1] [%] | cleaved PARP positive nuclei fraction [2] [%] | cleaved PARP positive nuclei fraction [3] [%] | cleaved PARP positive nuclei fraction [4] [%] | cleaved PARP positive nuclei fraction [5] [%] | cleaved PARP positive nuclei fraction [6] [%] | cleaved PARP positive nuclei fraction [7] [%] | cleaved PARP positive nuclei fraction [8] [%] | cleaved PARP positive nuclei fraction [9] [%] | cleaved PARP positive nuclei fraction [10] [%] | cleaved PARP positive nuclei fraction [11] [%] | cleaved PARP positive nuclei fraction [12] [%] | cleaved PARP positive nuclei fraction [13] [%] | cleaved PARP positive nuclei fraction [14] [%] | cleaved PARP positive nuclei fraction [15] [%] | cleaved PARP positive nuclei fraction [16] [%]
C[C@@H](Oc1cc(-c2cnn(C3CCNCC3)c2)cnc1N)c1c(Cl)ccc(F)c1Cl [Crizotinib] + CN(NC(=O)CC(=O)NN(C)C(=S)c1ccccc1)C(=S)c1ccccc1 [STA4783] (first compound 0.2 µM, partner dose 0.006 µM) | 43.3 | 175 | 19.6 | 379 | 29.2 | 107 | 63.7 | 185 | 178 | 299 | 227 | 195 | 119 | 23.7 | 110 | 80.6
O=C(O)[C@@H]1[O][Sb](=[O])([O][Sb]2(=[O])[O][C@H]([C@H](O)CO)[C@H](O)[C@H](C(=O)O)[O]2)[O][C@H]([C@H](O)CO)[C@@H]1O (stereo not given in full) [stibogluconate] + Cc1cc(N2CCOCC2)cc2[nH]c(-c3c(NC[C@@H](O)c4cccc(Cl)c4)cc[nH]c3=O)nc12 [BMS536924] (first compound 2 µM, partner dose 0.2 µM) | 94 | 77.3 | 107 | 71.9 | 83.4 | 103 | 69.1 | 102 | 164 | 303 | 47.1 | 21 | 101 | 255 | 99.9 | 114
C[C@@H](Oc1cc(-c2cnn(C3CCNCC3)c2)cnc1N)c1c(Cl)ccc(F)c1Cl [Crizotinib] + COc1cc2ncnc(Nc3ccc(Oc4ccccc4)cc3)c2cc1OC [SrcI1] (first compound 0.2 µM, partner dose 2 µM) | 66.6 | 62.4 | 49.1 | 23.7 | 119 | 120 | 231 | 296 | 50.9 | 64.2 | 51.3 | 51.9 | 95 | 37.3 | 121 | 61.5
Cc1cc(Nc2cc(N3CCN(C)CC3)nc(/C=C/c3ccccc3)n2)n[nH]1 + CNC(=O)c1cc(Oc2ccc(NC(=O)Nc3ccc(Cl)c(C(F)(F)F)c3)cc2)ccn1 [sorafenib] (first compound 0.04 µM, partner dose 0.4 µM) | 130 | 103 | 88.7 | 49.7 | 76.7 | 127 | 22.4 |  |  | 93.5 | 119 | 77 | 121 | 388 | 105 | 69.9
CC(C)C[C@H](NC(=O)[C@H](Cc1ccccc1)NC(=O)c1cnccn1)B(O)O [Bortezomib] + O=C(O)c1ccc(-c2c[nH]c3ncc(-c4ccccc4)cc23)cc1C1CCCC1 [GSK650394] (first compound 0.001 µM, partner dose 0.16 µM) | 304 | 60.1 | 254 | 53.7 | 40.6 | 116 | 69.3 | 237 | 145 | 87.7 | 146 | 650 | 158 | 70.3 | 493 | 99.4
CNC(=O)c1cc(Oc2ccc(NC(=O)Nc3ccc(Cl)c(C(F)(F)F)c3)cc2)ccn1 [sorafenib] + Oc1cc(-c2nc(-c3ccccc3)[nH]c2-c2ccncc2)ccc1Cl [L779450] (first compound 0.4 µM, partner dose 0.2 µM) | 85 | 86.6 | 140 | 75.9 | 114 | 61.1 | 371 | 77.7 | 41.9 | 137 | 145 | 71.4 | 110 | 203 | 106 | 35.5
CC(C)C[C@H](NC(=O)[C@H](Cc1ccccc1)NC(=O)c1cnccn1)B(O)O [Bortezomib] + O=C(O)C(=O)Nc1sc2c(c1C(=O)O)CCNC2 [TCS401] (first compound 0.001 µM, partner dose 1.66667 µM) | 207 | 67.5 | 72.6 | 76.5 | 99.6 | 167 | 44.8 | 72.9 | 117 | 117 | 82.8 | 340 | 126 | 90 | 400 | 75.2
CN1CCN(c2ccc3nc(-c4c(N)c5c(F)cccc5[nH]c4=O)[nH]c3c2)CC1 [Dovitinib] + N#Cc1c(O)c2c(-c3ccc(-c4ccccc4O)cc3)csc2[nH]c1=O [A769662] (first compound 0.1 µM, partner dose 2 µM) | 121 | 94 | 76.8 | 71.7 | 146 | 81 | 154 | 176 | 125 | 128 | 243 | 158 | 96.4 | 116 | 112 | 98.1
C=C(c1ccc(C(=O)O)cc1)c1cc2c(cc1C)C(C)(C)CCC2(C)C [Bexarotene] + Cc1cc([N+](=O)[O-])ccc1NS(=O)(=O)c1cc(Cl)ccc1Cl [FH535] (first compound 2 µM, partner dose 1 µM) | 106 | 49.1 | 74 | 151 | 172 | 180 | 207 | 46.1 | 47.3 | 142 | 35.8 | 124 | 110 | 128 | 82.6 | 96.8
Cc1cc(Nc2cc(N3CCN(C)CC3)nc(/C=C/c3ccccc3)n2)n[nH]1 + COc1cc(Nc2ncc(F)c(Nc3ccc4c(n3)NC(=O)C(C)(C)O4)n2)cc(OC)c1OC [Tamatinib] (first compound 0.04 µM, partner dose 0.4 µM) | 92.4 | 117 | 74.8 | 133 | 131 | 92.2 | 72.2 | 76.6 | 63.3 | 73.5 | 72.6 | 109 | 118 | 56.8 | 105 | 130
O=C(O)[C@@H]1[O][Sb](=[O])([O][Sb]2(=[O])[O][C@H]([C@H](O)CO)[C@H](O)[C@H](C(=O)O)[O]2)[O][C@H]([C@H](O)CO)[C@@H]1O (stereo not given in full) [stibogluconate] + CCCCCCCCCCCC1=C(O)C(=O)C=C(O)C1=O [Embelin] (first compound 2 µM, partner dose 1.2 µM) | 62.7 | 87 | 147 | 146 | 64 | 171 | 98 | 75.8 | 112 | 117 | 55.3 | 72.2 | 85.5 | 136 | 75.7 | 61.8
C[C@@H](Oc1cc(-c2cnn(C3CCNCC3)c2)cnc1N)c1c(Cl)ccc(F)c1Cl [Crizotinib] + CCc1ccc(CCOc2ccc(CC3SC(=O)NC3=O)cc2)nc1 [pioglitazone] (first compound 0.2 µM, partner dose 2 µM) | 89.6 | 26.8 | 107 | 87.9 | 117 | 96 | 81 | 77.8 | 186 | 62.4 | 74.4 | 99.9 | 86.5 | 150 | 86.2 | 363
CNC(=O)c1cc(Oc2ccc(NC(=O)Nc3ccc(Cl)c(C(F)(F)F)c3)cc2)ccn1 [sorafenib] + O=C(Nc1cccc(Cl)c1)Nc1ncc(CCNc2ncnc3ccsc23)s1 [SNS314] (first compound 0.4 µM, partner dose 0.0008 µM) | 191 | 37 | 50 | 37.9 | 64.6 | 74.5 | 63.4 | 76.6 | 87.9 | 149 | 295 | 63.8 | 100 | 57.3 | 97 | 238
C[C@@H](Oc1cc(-c2cnn(C3CCNCC3)c2)cnc1N)c1c(Cl)ccc(F)c1Cl [Crizotinib] + O=C(CCCCCCC(=O)Nc1ccccc1)NO [vorinostat] (first compound 0.2 µM, partner dose 0.08 µM) | 53.9 | 77.6 | 45 | 92.3 | 124 | 119 | 63.8 | 138 | 101 | 102 | 124 | 97.9 | 96.6 | 62.7 | 73.3 | 134
O=C(O)c1ccc2c(c1)nc(Nc1cccc(Cl)c1)c1ccncc12 + CC(C)(C)c1cnc(CSc2cnc(NC(=O)C3CCNCC3)s2)o1 [SNS-032] (first compound 0.4 µM, partner dose 0.01 µM) | 221 | 104 | 254 | 168 | 186 | 110 | 60.6 | 304 | 169 | 159 | 156 | 81.4 | 144 | 49.9 | 108 | 116
CNC(=O)c1cc(Oc2ccc(NC(=O)Nc3ccc(Cl)c(C(F)(F)F)c3)cc2)ccn1 [sorafenib] + O=C(Nc1ccccc1)c1cc([N+](=O)[O-])ccc1Cl [GW9662] (first compound 0.4 µM, partner dose 2 µM) | 48.6 | 102 | 67 | 150 | 22.8 | 107 | 193 | 229 | 20.4 | 138 | 71.9 | 74.8 | 189 | 59.3 | 88.3 | 69.7
CCCS(=O)(=O)Nc1ccc(F)c(C(=O)c2c[nH]c3ncc(Cl)cc23)c1F + Cn1cc(/C=C2\C(=O)Nc3cccnc32)c2ccccc21 [GW441756] (first compound 0.08 µM, partner dose 0.4 µM) | 40.4 | 135 | 70.9 | 102 | 101 | 24.9 | 57.6 | 75 | 245 | 304 | 64 | 89.8 | 95.8 | 99 | 108 | 93.7
CN1CCN(c2ccc3nc(-c4c(N)c5c(F)cccc5[nH]c4=O)[nH]c3c2)CC1 [Dovitinib] + C#Cc1cccc(Nc2ncnc3cc(OCCOC)c(OCCOC)cc23)c1 [erlotinib] (first compound 0.1 µM, partner dose 0.8 µM) | 121 | 124 | 118 | 109 | 93.2 | 131 | 114 |  |  | 115 | 85.9 | 54.6 | 379 | 83.6 | 94.9 | 65
C=C(c1ccc(C(=O)O)cc1)c1cc2c(cc1C)C(C)(C)CCC2(C)C [Bexarotene] + COc1cc(Nc2ncc(F)c(Nc3ccc4c(n3)NC(=O)C(C)(C)O4)n2)cc(OC)c1OC [Tamatinib] (first compound 2 µM, partner dose 0.4 µM) | 114 | 263 | 109 | 61 | 96.5 | 164 | 70.1 | 241 | 73.2 | 112 | 62.1 | 123 | 124 | 159 | 101 | 70.9

An excerpt of these results, as comma-separated lines:
Compound,cleaved PARP positive nuclei fraction [1] [%],cleaved PARP positive nuclei fraction [2] [%],cleaved PARP positive nuclei fraction [3] [%],cleaved PARP positive nuclei fraction [4] [%],cleaved PARP positive nuclei fraction [5] [%],cleaved PARP positive nuclei fraction [6] [%],cleaved PARP positive nuclei fraction [7] [%],cleaved PARP positive nuclei fraction [8] [%],cleaved PARP positive nuclei fraction [9] [%],cleaved PARP positive nuclei fraction [10] [%],cleaved PARP positive nuclei fraction [11] [%],cleaved PARP positive nuclei fraction [12] [%],cleaved PARP positive nuclei fraction [13] [%],cleaved PARP positive nuclei fraction [14] [%],cleaved PARP positive nuclei fraction [15] [%],cleaved PARP positive nuclei fraction [16] [%]
"C[C@@H](Oc1cc(-c2cnn(C3CCNCC3)c2)cnc1N)c1c(Cl)ccc(F)c1Cl [Crizotinib] + COc1cc2ncnc(Nc3ccc(Oc4ccccc4)cc3)c2cc1OC [SrcI1] (first compound 0.2 µM, partner dose 2 µM)",66.6,62.4,49.1,23.7,119,120,231,296,50.9,64.2,51.3,51.9,95,37.3,121,61.5
"Cc1cc(Nc2cc(N3CCN(C)CC3)nc(/C=C/c3ccccc3)n2)n[nH]1 + CNC(=O)c1cc(Oc2ccc(NC(=O)Nc3ccc(Cl)c(C(F)(F)F)c3)cc2)ccn1 [sorafenib] (first compound 0.04 µM, partner dose 0.4 µM)",130,103,88.7,49.7,76.7,127,22.4,,,93.5,119,77,121,388,105,69.9
